No constants are given. Whether binding was seen depends on the method and setting. Binding seen in cells or lysates may run through a third protein. Some binding calls cover weakened binding; strength is not graded here.
Biological target: HsfA1d (endogenous) (Arabidopsis thaliana (endogenous in seedlings)) (UniProt Q9LQM7)
Test: co-IP

Amino acid sequences for entries named in this document (tags omitted).
UniProt Q9LQM7: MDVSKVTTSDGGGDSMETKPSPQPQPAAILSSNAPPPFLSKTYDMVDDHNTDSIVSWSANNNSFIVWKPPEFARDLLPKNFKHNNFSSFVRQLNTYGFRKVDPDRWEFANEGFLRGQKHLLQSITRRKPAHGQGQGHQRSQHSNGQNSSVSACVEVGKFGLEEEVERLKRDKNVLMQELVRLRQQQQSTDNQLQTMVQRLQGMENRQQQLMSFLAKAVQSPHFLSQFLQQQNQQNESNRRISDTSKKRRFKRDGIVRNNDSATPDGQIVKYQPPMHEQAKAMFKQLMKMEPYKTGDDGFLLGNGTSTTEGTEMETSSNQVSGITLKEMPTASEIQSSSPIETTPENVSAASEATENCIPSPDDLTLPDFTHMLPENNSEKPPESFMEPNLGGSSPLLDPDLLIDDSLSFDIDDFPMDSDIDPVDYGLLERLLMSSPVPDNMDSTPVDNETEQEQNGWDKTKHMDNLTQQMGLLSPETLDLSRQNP
UniProt P22953: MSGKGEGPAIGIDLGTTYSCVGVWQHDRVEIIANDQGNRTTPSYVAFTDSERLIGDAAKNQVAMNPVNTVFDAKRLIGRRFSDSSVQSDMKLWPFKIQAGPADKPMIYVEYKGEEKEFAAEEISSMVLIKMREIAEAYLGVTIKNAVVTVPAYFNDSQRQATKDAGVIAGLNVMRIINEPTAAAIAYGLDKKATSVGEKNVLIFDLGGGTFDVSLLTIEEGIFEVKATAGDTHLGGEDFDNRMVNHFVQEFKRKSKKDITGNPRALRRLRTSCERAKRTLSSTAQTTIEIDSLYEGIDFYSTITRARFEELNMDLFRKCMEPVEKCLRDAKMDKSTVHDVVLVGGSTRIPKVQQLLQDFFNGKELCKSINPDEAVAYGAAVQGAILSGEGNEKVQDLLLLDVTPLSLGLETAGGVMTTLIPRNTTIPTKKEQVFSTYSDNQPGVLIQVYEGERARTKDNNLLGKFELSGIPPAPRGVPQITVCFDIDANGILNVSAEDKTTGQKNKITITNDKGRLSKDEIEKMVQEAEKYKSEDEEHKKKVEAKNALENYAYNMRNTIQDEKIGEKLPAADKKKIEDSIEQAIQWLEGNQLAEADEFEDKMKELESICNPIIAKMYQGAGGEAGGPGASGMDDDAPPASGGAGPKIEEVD

binding: binds
Substance: Hsc70-1 (from UniProt P22953 1-651)

— article doi:10.1101/2025.05.20.654906
